Reference: the supplement of paper PMC6411743
± gives the standard deviation of the averaged measurements. This is one part of the list.

By UniProt entry, the sequences of proteins in these tests, tags left out. Where a name states a change or a piece, a line headed by the entry shows the natural chain unless it says otherwise.
UniProt Q96DZ1: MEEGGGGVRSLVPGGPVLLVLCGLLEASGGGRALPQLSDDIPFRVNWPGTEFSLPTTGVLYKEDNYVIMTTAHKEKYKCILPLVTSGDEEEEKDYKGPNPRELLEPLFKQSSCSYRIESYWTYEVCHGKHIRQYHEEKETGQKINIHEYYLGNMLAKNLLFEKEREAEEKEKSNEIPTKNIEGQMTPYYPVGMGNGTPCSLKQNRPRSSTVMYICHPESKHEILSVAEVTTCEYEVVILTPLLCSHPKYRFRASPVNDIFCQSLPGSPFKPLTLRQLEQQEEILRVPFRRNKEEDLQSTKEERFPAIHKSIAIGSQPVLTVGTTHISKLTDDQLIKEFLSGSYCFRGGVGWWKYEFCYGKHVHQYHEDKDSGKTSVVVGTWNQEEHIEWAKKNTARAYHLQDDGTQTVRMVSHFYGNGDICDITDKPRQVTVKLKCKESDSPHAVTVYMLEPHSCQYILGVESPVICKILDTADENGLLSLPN
UniProt Q969S3: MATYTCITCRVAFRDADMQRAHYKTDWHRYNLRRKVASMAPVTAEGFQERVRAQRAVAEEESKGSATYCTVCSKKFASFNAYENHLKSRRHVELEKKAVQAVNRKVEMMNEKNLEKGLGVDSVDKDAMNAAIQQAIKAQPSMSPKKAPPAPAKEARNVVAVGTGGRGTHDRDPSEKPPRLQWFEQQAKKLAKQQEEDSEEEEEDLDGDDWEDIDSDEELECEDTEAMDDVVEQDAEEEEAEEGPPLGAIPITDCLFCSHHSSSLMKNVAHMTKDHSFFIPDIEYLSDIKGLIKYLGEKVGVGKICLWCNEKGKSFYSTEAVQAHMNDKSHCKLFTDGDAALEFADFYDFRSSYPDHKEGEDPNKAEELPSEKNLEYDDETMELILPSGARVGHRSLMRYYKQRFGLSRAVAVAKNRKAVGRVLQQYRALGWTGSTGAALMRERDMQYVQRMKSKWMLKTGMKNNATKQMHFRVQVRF
UniProt Q96BJ3: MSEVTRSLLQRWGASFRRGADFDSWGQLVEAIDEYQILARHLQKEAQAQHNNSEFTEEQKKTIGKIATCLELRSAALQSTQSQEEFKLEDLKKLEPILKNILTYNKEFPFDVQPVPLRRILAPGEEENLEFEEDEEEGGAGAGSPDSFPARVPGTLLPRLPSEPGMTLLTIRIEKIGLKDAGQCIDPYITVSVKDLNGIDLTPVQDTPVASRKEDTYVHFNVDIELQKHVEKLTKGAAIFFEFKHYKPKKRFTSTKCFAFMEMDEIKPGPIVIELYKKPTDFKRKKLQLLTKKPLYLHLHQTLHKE
UniProt Q92506: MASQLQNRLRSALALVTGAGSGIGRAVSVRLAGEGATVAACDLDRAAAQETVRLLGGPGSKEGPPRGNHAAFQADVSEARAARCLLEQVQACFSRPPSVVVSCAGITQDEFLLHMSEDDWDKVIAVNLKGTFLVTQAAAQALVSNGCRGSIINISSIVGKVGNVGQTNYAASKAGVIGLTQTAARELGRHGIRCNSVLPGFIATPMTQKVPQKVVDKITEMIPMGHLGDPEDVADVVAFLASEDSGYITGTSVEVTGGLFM
UniProt Q92696: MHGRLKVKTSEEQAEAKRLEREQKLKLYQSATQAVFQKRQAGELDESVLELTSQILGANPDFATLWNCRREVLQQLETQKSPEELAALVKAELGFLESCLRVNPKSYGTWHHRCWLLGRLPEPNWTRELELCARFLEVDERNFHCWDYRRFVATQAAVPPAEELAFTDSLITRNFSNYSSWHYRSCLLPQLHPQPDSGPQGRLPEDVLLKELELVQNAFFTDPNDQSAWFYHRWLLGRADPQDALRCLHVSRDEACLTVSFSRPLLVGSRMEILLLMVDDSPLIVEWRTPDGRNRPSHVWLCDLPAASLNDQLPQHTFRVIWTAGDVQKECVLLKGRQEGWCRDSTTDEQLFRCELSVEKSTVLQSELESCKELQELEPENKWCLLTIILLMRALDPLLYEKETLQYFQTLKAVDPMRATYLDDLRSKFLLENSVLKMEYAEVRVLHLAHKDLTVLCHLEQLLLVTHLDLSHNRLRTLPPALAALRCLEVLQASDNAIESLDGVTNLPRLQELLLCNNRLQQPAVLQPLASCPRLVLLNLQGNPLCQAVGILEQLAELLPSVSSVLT
UniProt Q92619: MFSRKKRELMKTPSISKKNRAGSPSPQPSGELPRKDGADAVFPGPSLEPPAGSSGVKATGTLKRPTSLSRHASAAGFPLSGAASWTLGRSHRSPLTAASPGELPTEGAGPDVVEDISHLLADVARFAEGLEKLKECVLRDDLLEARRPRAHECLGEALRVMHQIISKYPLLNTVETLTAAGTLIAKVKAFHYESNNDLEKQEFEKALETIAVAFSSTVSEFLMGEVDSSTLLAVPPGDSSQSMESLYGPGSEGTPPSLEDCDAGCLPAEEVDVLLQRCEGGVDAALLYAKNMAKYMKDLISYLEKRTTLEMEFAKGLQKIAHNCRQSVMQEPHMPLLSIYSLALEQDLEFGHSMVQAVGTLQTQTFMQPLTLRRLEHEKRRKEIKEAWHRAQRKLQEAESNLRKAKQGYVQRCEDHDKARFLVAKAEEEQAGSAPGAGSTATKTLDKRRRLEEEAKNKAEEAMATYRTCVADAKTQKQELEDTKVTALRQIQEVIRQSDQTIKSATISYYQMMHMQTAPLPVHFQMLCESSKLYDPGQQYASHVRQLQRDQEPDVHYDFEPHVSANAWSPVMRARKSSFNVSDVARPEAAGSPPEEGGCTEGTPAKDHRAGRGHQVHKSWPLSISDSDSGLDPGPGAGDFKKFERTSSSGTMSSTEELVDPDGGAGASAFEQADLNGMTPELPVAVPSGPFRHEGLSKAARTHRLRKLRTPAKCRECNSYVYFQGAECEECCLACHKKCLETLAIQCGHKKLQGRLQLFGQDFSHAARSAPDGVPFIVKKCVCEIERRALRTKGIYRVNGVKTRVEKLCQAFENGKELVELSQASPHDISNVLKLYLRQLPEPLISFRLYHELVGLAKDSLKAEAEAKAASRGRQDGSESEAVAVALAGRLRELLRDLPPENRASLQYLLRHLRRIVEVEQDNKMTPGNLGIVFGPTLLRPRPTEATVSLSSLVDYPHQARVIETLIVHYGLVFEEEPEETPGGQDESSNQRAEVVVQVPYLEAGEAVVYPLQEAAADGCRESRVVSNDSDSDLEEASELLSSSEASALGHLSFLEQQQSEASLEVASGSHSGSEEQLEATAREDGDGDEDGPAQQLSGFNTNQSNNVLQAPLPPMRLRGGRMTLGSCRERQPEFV
UniProt Q96H20: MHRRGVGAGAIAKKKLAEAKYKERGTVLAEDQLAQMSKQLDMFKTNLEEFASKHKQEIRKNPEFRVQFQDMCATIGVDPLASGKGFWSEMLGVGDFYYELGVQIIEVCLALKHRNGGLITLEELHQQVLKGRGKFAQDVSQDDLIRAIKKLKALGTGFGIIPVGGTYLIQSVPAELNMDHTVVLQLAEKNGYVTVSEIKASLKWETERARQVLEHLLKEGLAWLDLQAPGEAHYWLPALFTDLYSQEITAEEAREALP
UniProt Q96HW7, whole entry: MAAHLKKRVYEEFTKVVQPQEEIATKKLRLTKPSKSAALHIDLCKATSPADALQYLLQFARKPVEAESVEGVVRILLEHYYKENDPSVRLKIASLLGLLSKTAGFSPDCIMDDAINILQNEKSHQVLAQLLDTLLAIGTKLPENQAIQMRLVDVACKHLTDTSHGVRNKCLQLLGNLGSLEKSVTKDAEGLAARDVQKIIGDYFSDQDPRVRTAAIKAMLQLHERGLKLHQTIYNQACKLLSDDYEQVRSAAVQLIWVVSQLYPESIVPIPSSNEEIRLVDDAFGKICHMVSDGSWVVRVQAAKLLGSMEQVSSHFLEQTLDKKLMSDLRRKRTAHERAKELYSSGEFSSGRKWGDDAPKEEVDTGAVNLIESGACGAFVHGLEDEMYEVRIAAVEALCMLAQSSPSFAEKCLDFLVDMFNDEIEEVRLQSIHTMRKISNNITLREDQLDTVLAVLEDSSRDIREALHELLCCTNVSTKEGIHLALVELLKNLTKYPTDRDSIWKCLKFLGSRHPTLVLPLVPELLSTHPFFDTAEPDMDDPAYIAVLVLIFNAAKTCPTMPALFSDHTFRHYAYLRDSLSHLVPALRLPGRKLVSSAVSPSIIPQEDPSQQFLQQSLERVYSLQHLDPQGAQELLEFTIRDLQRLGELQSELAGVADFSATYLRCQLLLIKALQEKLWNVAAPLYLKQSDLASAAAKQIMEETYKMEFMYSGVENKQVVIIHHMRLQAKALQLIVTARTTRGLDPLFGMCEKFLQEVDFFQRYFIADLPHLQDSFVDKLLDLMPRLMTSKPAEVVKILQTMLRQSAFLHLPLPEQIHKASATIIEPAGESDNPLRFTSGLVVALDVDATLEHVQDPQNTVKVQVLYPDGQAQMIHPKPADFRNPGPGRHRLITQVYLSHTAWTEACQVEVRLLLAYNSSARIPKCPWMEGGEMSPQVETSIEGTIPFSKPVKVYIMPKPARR
UniProt Q8WXX5: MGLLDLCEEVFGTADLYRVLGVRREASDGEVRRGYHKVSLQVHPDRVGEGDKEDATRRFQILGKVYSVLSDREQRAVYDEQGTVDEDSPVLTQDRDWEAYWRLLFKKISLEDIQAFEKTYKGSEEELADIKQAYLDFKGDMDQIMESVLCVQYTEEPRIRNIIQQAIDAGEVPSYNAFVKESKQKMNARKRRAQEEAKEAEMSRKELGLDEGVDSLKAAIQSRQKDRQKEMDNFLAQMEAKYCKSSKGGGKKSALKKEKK
UniProt Q96EB6: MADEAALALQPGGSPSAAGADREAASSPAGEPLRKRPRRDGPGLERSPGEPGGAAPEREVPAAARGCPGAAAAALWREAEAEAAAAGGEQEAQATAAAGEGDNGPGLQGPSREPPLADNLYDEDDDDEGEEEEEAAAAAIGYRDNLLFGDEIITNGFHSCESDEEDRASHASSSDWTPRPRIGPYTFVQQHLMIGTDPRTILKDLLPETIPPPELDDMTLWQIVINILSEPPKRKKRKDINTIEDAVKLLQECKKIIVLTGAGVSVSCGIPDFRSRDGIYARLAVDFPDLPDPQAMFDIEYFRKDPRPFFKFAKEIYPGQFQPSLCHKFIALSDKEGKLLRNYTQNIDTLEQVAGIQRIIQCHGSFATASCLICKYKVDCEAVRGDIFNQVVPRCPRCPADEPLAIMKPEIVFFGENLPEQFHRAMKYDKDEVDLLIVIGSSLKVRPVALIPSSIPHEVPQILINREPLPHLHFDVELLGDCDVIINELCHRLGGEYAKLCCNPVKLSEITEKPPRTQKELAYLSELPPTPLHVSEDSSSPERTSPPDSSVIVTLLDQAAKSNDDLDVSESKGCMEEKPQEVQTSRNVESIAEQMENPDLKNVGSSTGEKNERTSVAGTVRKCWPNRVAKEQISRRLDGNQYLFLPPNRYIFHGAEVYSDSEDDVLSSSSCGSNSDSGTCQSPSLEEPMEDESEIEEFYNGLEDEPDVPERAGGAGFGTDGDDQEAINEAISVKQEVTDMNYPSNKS
UniProt Q969E8: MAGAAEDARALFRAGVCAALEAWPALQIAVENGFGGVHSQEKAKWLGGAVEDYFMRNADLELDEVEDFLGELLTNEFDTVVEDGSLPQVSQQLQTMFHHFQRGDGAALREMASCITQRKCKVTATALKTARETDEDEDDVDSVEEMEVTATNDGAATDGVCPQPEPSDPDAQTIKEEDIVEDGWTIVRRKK
UniProt Q96E29: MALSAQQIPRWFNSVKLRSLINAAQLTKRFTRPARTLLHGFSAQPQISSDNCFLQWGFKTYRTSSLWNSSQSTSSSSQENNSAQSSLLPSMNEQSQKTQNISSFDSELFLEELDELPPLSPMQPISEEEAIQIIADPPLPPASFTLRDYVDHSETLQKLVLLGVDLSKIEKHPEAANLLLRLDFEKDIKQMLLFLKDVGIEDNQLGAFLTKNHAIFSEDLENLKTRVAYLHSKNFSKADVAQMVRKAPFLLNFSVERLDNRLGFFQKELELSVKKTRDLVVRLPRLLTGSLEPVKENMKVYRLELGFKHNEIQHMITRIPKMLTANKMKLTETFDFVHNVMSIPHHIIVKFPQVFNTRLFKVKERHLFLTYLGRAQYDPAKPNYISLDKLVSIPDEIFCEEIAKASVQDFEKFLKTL
UniProt Q8WVD3: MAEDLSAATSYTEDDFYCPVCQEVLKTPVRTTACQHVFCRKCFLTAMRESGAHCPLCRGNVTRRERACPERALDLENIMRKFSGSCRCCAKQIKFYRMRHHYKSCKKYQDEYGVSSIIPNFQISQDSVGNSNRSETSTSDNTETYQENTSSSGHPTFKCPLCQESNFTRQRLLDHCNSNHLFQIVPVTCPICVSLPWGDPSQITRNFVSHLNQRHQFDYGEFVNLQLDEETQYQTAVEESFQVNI
UniProt Q96IU4: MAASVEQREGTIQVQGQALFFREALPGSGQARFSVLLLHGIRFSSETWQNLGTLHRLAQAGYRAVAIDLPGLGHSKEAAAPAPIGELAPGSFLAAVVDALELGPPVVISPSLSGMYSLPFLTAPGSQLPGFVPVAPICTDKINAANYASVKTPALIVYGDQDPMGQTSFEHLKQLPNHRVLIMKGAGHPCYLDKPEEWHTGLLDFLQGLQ

Compound: Nc1nc2c(ncn2[C@@H]2O[C@H](COP(=O)(O)OP(=O)(O)OP(=O)(O)O)[C@@H](O)[C@H]2O)c(=O)[nH]1 [guanosine triphosphate]
Assay: NP40-soluble protein abundance relative to vehicle (solubility fold change) (ratio); higher = more soluble protein in presence of GTP
How it was run: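 Each value is a fold change relative to the detergent-processed vehicle, calculated per replicate from vsn-normalised intensities. Jurkat crude lysate received eight concentrations (0.1 to 10 mM) for 10 min at room temperature and 3 min at 37 °C, then was solubilised in 0.8% NP40 with benzonase (60 min, 4 °C). The ultracentrifuged supernatant was TMT-labelled and run by LC-MS/MS in three independent experiments.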

Row | Target | NP40-soluble protein abundance (concentration: 0.1mM) | NP40-soluble protein abundance (concentration: 0.5mM) | NP40-soluble protein abundance (concentration: 1mM) | NP40-soluble protein abundance (concentration: 2mM) | NP40-soluble protein abundance (concentration: 4mM) | NP40-soluble protein abundance (concentration: 6mM) | NP40-soluble protein abundance (concentration: 8mM) | NP40-soluble protein abundance (concentration: 10mM)
1 | UniProt Q96DZ1 and related entries | 1.01 ± 0.027 | 1 ± 0.023 | 0.996 ± 0.036 | 1.02 ± 0.017 | 0.995 ± 0.025 | 0.978 ± 0.015 | 1.01 ± 0.058 | 0.963 ± 0.012
2 | ZNF622 (UniProt Q969S3) | 1.03 ± 0.084 | 1.03 ± 0.14 | 1.11 ± 0.17 | 1.15 ± 0.11 | 1.16 ± 0.14 | 1.24 ± 0.077 | 1.31 ± 0.18 | 1.42 ± 0.18
3 | AIDA (UniProt Q96BJ3) | 0.969 ± 0.099 | 0.958 ± 0.099 | 0.959 ± 0.097 | 0.926 ± 0.12 | 0.887 ± 0.066 | 0.873 ± 0.092 | 0.915 ± 0.11 | 0.887 ± 0.12
4 | UniProt Q96F63 and related entries | 0.92 ± 0.086 | 0.932 ± 0.044 | 1.1 ± 0.14 | 1.07 ± 0.08 | 1.06 ± 0.11 | 1.06 ± 0.082 | 1.08 ± 0.13 | 1.14 ± 0.16
5 | C15orf40 (UniProt Q8WUR7) | 1.02 ± 0.1 | 1.02 ± 0.084 | 1.03 ± 0.034 | 1.05 ± 0.12 | 1.04 ± 0.13 | 1.01 ± 0.097 | 1.11 ± 0.061 | 1.17 ± 0.12
6 | DHX38 (UniProt Q92620) | 1.07 ± 0.037 | 1.1 ± 0.038 | 1.11 ± 0.1 | 1.09 ± 0.035 | 1.18 ± 0.043 | 1.17 ± 0.061 | 1.23 ± 0.076 | 1.19 ± 0.049
7 | MRPL53 (UniProt Q96EL3) | 0.935 ± 0.065 | 0.934 ± 0.09 | 1.13 ± 0.22 | 1.2 ± 0.2 | 1.27 ± 0.27 | 1.18 ± 0.23 | 1.14 ± 0.18 | 1.15 ± 0.25
8 | HSD17B8 (UniProt Q92506) | 0.925 ± 0.092 | 0.976 ± 0.1 | 0.9 ± 0.096 | 0.946 ± 0.069 | 0.893 ± 0.11 | 0.871 ± 0.082 | 0.848 ± 0.062 | 0.899 ± 0.066
9 | UniProt Q96EV8 and related entries | 0.969 ± 0.067 | 0.934 ± 0.099 | 0.986 ± 0.079 | 0.901 ± 0.07 | 0.932 ± 0.17 | 0.892 ± 0.054 | 0.947 ± 0.12 | 0.882 ± 0.1
10 | CCDC47 (UniProt Q96A33) | 0.98 ± 0.015 | 1.03 ± 0.034 | 0.947 ± 0.055 | 0.965 ± 0.058 | 0.927 ± 0.054 | 0.971 ± 0.056 | 0.941 ± 0.046 | 0.971 ± 0.056
11 | RABGGTA (UniProt Q92696) | 1.04 ± 0.026 | 1.04 ± 0.075 | 0.896 ± 0.022 | 0.916 ± 0.068 | 0.91 ± 0.037 | 0.889 ± 0.032 | 0.847 ± 0.037 | 0.849 ± 0.07
12 | UniProt Q92619 | 1.01 ± 0.013 | 1.03 ± 0.03 | 1.03 ± 0.031 | 1.02 ± 0.021 | 1.02 ± 0.029 | 1.01 ± 0.021 | 1.02 ± 0.036 | 0.995 ± 0.04
13 | PGAM5 (UniProt Q96HS1) | 1.03 ± 0.034 | 1.09 ± 0.073 | 1.18 ± 0.14 | 1.4 ± 0.26 | 1.67 ± 0.38 | 1.79 ± 0.45 | 1.86 ± 0.4 | 1.95 ± 0.47
14 | UniProt Q96H20 and related entries | 0.98 ± 0.027 | 0.913 ± 0.035 | 0.98 ± 0.059 | 0.943 ± 0.061 | 0.947 ± 0.075 | 0.907 ± 0.071 | 0.909 ± 0.14 | 0.893 ± 0.058
15 | UniProt Q96HW7 and related entries | 1.11 ± 0.03 | 1.15 ± 0.068 | 1.18 ± 0.089 | 1.27 ± 0.15 | 1.36 ± 0.13 | 1.3 ± 0.15 | 1.39 ± 0.18 | 1.3 ± 0.17
16 | UniProt Q96BD5 and related entries | 1.01 ± 0.025 | 1.02 ± 0.035 | 1.04 ± 0.043 | 1.08 ± 0.054 | 1.09 ± 0.057 | 1.14 ± 0.065 | 1.15 ± 0.086 | 1.16 ± 0.12
17 | UniProt Q92784 and related entries | 1.01 ± 0.1 | 0.999 ± 0.077 | 1.05 ± 0.072 | 1.13 ± 0.061 | 1.15 ± 0.088 | 1.13 ± 0.063 | 1.19 ± 0.17 | 1.18 ± 0.13
18 | USP7 (UniProt Q93009) | 1.05 ± 0.048 | 1.07 ± 0.086 | 0.997 ± 0.049 | 1.01 ± 0.085 | 1 ± 0.073 | 1 ± 0.066 | 0.979 ± 0.049 | 0.937 ± 0.077
19 | DNAJC9 (UniProt Q8WXX5) | 0.948 ± 0.017 | 0.891 ± 0.088 | 1.04 ± 0.053 | 1.18 ± 0.066 | 1.35 ± 0.099 | 1.4 ± 0.091 | 1.43 ± 0.13 | 1.53 ± 0.11
20 | Sirt1 (UniProt Q96EB6) | 1.01 ± 0.016 | 0.994 ± 0.039 | 1.02 ± 0.039 | 0.965 ± 0.036 | 0.937 ± 0.072 | 0.956 ± 0.056 | 0.944 ± 0.022 | 0.964 ± 0.027
21 | TSR2 (UniProt Q969E8) | 0.875 ± 0.18 | 0.852 ± 0.13 | 0.909 ± 0.099 | 0.947 ± 0.12 | 1.05 ± 0.19 | 1.04 ± 0.16 | 1.07 ± 0.18 | 1.18 ± 0.23
22 | UBXN4 (UniProt Q92575) | 0.946 ± 0.085 | 0.95 ± 0.089 | 0.906 ± 0.058 | 0.881 ± 0.059 | 0.876 ± 0.067 | 0.904 ± 0.088 | 0.858 ± 0.062 | 0.848 ± 0.088
23 | ERCC4 (UniProt Q92889) | 1.06 ± 0.067 | 1.04 ± 0.11 | 1.08 ± 0.082 | 1.09 ± 0.043 | 1 ± 0.12 | 1.05 ± 0.1 | 1.02 ± 0.11 | 1.02 ± 0.053
24 | UniProt Q92900 and related entries | 1.01 ± 0.025 | 1.01 ± 0.04 | 0.936 ± 0.034 | 0.971 ± 0.065 | 0.957 ± 0.049 | 0.937 ± 0.057 | 0.898 ± 0.035 | 0.884 ± 0.011
25 | UniProt Q96HN2 and related entries | 1.02 ± 0.078 | 0.993 ± 0.041 | 1.02 ± 0.025 | 1.03 ± 0.045 | 1.01 ± 0.067 | 1.03 ± 0.067 | 1.04 ± 0.043 | 1 ± 0.022
26 | UniProt Q96D05 and related entries | 1.15 ± 0.085 | 1.07 ± 0.27 | 1.29 ± 0.32 | 1.19 ± 0.21 | 1.16 ± 0.19 | 1.16 ± 0.049 | 1.09 ± 0.45 | 1.23 ± 0.34
27 | UniProt Q96E29 and related entries | 1.01 ± 0.099 | 1.01 ± 0.046 | 1.05 ± 0.069 | 0.961 ± 0.091 | 1.01 ± 0.075 | 0.92 ± 0.095 | 0.941 ± 0.12 | 0.946 ± 0.056
28 | UniProt Q92783 and related entries | 0.902 ± 0.019 | 0.921 ± 0.042 | 0.944 ± 0.024 | 0.906 ± 0.075 | 0.879 ± 0.084 | 0.913 ± 0.069 | 0.903 ± 0.055 | 0.913 ± 0.058
29 | RNF138 (UniProt Q8WVD3) | 1.06 ± 0.049 | 1.05 ± 0.022 | 1.04 ± 0.017 | 1.04 ± 0.069 | 1.07 ± 0.051 | 1.06 ± 0.049 | 1.09 ± 0.073 | 1.09 ± 0.026
30 | ABHD14B (UniProt Q96IU4) | 0.881 ± 0.17 | 0.853 ± 0.16 | 0.822 ± 0.13 | 0.791 ± 0.096 | 0.741 ± 0.096 | 0.743 ± 0.096 | 0.746 ± 0.13 | 0.75 ± 0.12
